Where “and” joins values, the source holds several entries; their conditions need not be identical. Identical values can stand only once. Among all 78,000 compounds or so, about 1,800 (2.3%) were called active. The inconclusive results got no clear call from the source; some entries with a clear call stand among them for comparison. No stated cut-off is given here; in the data, active means inhibition above about 30%; inconclusive means mostly about 10% to 28%; inactive means weaker than that.
molecular target: Interleukin-1 receptor-like 1 (Homo sapiens) (UniProt Q01638); experiment: blocks human ST2 binding to IL-33, primary screen, biochemical, AlphaLISA (AID 1259354); conditions: AlphaLISA ST2-Fc/biotin-IL-33 interaction, 1 h; at 17 µM, stronger effect = higher value

Protein sequences, listed by entry. Tags and fused reporters are not part of them. Lines headed by an entry give the natural chain unless they say otherwise; changes in a name come on top.
UniProt Q01638: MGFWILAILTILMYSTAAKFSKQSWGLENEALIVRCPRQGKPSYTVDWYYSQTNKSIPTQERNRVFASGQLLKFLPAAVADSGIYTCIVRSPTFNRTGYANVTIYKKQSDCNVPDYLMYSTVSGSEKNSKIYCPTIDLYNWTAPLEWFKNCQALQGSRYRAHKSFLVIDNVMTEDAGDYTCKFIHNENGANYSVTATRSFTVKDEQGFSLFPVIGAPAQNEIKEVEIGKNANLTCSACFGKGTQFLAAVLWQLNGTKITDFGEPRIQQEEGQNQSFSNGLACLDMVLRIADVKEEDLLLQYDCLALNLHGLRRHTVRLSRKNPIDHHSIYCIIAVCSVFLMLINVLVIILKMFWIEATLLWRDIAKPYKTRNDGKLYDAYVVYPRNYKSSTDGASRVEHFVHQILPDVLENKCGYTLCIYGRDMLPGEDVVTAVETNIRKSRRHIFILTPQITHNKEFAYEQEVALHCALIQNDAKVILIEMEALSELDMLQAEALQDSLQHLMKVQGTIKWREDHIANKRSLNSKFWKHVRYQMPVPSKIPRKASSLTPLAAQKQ

| Compound | inhibition |
| --- | --- |
| COc1cc(C(=O)Nc2ccc(NC(C)=O)cc2)cc(OC)c1OC | inactive |
| CC(C)(C)C(=O)Nc1cccc(OC(F)(F)C(F)Cl)c1 (stereo not given) | inconclusive: 10% |
| N#Cc1c(-n2ncnc2-c2ccc3c(c2)OCO3)sc2c1CCCCC2 | active: 35% and inconclusive: 21% |
| O=C(CCS(=O)(=O)c1cccc2nsnc12)Nc1cccc(C(F)(F)F)c1 | inconclusive: 11% |
| O=C(/C=C/c1cccs1)N1CCC(C2(Cc3ccc(F)cc3)NC(=O)N(C3CCOC3)C2=O)CC1 (stereo not given) | inconclusive: 20% |
| O=C(c1ccc([N+](=O)[O-])cc1Cl)N1CCN(c2ccc(F)cc2)CC1 | inconclusive: 12% |
| CC1(C)CC(=O)C2=C(C1)OC(N)=C(C#N)C2c1ccc(OC(=O)c2ccccc2)cc1 (stereo not given) | inconclusive: 12% |
| CCC(=O)NCc1ccccc1-c1cccc(-n2cccn2)c1 | inconclusive: 10% |
| Cc1cc([N+](=O)[O-])nn1CCCC(=O)Nc1cnn(Cc2ccc(Cl)cc2Cl)c1 | inconclusive: 13% |
| CC(C)CCC(O)C1CC(CO)OC1=O (stereo not given) | inconclusive: 13% |
| CCCCSc1oc(-c2ccco2)nc1S(=O)(=O)c1ccc(Br)cc1 | inconclusive: 24% |
| Cc1ccc(CNc2ccc(C(=O)NCc3cnc(C)cn3)cc2)cc1 | inconclusive: 16% |
| COC(=O)C(NC1CCN(C(=O)c2ccccc2)CC1)c1cccc(C)c1 (stereo not given) | inconclusive: 18% |
| O=C(O)CC1=C2CN(C1=O)C(c1ccccc1)c1cc(Br)ccc1N2 (stereo not given) | inconclusive: 12% |
| CNCC(=O)NC(c1cccs1)C1CCCCC1 (stereo not given) | inconclusive: 13% |
| N#CC1=C(N)S[C@@H](C(=O)c2ccc(F)cc2)[C@@H]1c1ccc(F)cc1 | inconclusive: 15% |
| COc1cc(OC)cc(C(=O)NCC2CCCN(C(=O)C3=CCCC3)C2)c1 (stereo not given) | inconclusive: 14% |
| CCc1ccc(NC(=O)c2noc3c2CC(C(C)(C)C)CC3)cc1 (stereo not given) | active: 53% |
| CCOC(=O)c1cnc2ccccc2c1Nc1ccccc1OCC | inconclusive: 16% |
| Cc1nc(C)c(CC(=O)N2CCc3c([nH]c4ccccc34)C2c2ccccn2)s1 (stereo not given) | inconclusive: 10% |
| CS(=O)(=O)c1ncc(CN2CCCCC2c2nccs2)n1CCCc1ccccc1 (stereo not given) | inactive |
| Cc1nc(CN2CC(OCc3ccncc3)CN(Cc3ccc(F)cc3F)CC2=O)cs1 (stereo not given) | inactive |
| CC1(NC(=O)Nc2cccc([N+](=O)[O-])c2)CCS(=O)(=O)C1 (stereo not given) | inactive |
| CC[C@H]1C[C@@H](NC(=O)c2ccccc2)C[C@@H](CCn2nc(C)cc2C)O1 | inconclusive: 12% |
| CCCCNC(=O)CN1C(=O)C(CC)Oc2ccccc21 (stereo not given) | inactive |

Source: PubChem BioAssay AID1259354 (Paczesny and Yang Labs, IUPUI and University of Michigan, 2018)
